Among the data in article PMC5741625, “Methylation-regulated decommissioning of multimeric PP2A complexes” (Nature Communications, 2017) are binding values, retold here.

Sequences of proteins named here, by UniProt entry; tags and fusion partners are left off. A change or cut given only in a name is not applied to a line headed by its entry.
UniProt P67775: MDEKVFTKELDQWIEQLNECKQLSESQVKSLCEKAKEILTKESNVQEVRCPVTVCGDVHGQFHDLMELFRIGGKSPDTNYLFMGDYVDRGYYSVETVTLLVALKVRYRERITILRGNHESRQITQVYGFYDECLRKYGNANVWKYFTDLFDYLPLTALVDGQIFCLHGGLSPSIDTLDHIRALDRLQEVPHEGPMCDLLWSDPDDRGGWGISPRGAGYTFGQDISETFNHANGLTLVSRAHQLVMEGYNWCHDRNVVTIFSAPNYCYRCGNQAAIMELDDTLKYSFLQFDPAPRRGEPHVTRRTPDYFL

The target in the test is T1, Flag-tagged human TIPRL, wild type (human) (UniProt O75663).
T1 sequence: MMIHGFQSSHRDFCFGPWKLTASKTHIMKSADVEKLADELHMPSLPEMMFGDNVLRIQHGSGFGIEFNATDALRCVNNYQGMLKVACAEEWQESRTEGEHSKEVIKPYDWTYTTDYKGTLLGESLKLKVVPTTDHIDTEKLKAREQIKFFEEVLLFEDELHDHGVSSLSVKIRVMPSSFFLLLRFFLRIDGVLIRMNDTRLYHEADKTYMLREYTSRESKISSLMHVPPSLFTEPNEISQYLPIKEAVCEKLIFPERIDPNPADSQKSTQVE
Briefly: co-IP; 293T cells co-transfected with Flag-TIPRL and V5-PP2Ac; anti-FLAG affinity gel; western blot.

Results are given in words; binding and its absence hold for the method and conditions named. Binding seen in cells or lysates may run through a third protein. Some results given as binding are weak or reduced against the parent protein; the word gives no strength. Tags and fused reporters may be left off the sequences shown.

On to “V5-tagged human PP2Ac Y307E (from UniProt P67775 1-309) (enzyme)”, for which the binding entry is listed as “no binding”.

Turning to “V5-tagged human PP2Ac with deletion of residue L309 (from UniProt P67775 1-309) (enzyme)”, the binding entry is on record as “no binding”.

“V5-tagged human PP2Ac α isoform, wild type (from UniProt P67775 1-309) (enzyme)”: the binding entry is recorded as “binds”.
